Results are given in words; binding and its absence hold for the method and conditions named. In cells and extracts the contact can be indirect. Some entries that bind do so weakly or less than the wild type.
Experiments:
[1] = target: Wilm's tumour-1 (WT1) (human (endogenous in PANC-1)) (UniProt P19544); experiment: co-IP; PANC-1 lysates immunoprecipitated with anti-WT1 or anti-USP5 antibody (non-specific IgG as control); WT1 and USP5 blotted in the precipitates; endogenous proteins
[2] = target: USP5 (human (endogenous in PANC-1)) (UniProt P45974); experiment: as above

Amino acid sequences for entries named in this document (tags omitted).
UniProt P45974: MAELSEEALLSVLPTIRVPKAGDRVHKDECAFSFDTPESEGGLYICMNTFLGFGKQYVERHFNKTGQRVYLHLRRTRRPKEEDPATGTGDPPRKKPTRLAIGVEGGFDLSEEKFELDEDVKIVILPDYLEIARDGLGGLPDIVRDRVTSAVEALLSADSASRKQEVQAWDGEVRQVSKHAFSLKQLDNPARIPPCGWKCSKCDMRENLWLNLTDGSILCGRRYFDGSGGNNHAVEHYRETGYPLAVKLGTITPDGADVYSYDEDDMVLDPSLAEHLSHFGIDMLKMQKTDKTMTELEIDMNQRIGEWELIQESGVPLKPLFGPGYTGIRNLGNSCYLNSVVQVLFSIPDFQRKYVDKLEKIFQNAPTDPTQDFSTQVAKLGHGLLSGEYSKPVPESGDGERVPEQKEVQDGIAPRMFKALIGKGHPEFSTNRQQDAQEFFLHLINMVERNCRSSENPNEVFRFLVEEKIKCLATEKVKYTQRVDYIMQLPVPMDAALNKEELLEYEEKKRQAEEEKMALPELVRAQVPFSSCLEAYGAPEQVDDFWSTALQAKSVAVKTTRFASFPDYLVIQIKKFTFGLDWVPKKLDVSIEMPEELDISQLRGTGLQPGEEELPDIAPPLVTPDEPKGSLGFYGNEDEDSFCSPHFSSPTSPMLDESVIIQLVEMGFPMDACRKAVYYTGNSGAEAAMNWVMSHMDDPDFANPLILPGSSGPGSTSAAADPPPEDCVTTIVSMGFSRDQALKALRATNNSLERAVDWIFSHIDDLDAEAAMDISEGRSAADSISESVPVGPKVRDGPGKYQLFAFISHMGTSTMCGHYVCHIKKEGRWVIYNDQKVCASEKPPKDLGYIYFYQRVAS

With “USP5 (from UniProt P45974 1-858) (enzyme)” the binding [1] was “binds”.

For “Wilm's tumour-1 (WT1) (from UniProt P19544 1-449)”, the binding [2] was “binds”.

From publication PMC6991651
